# Results are given in words; binding and its absence hold for the method and conditions named. Binding seen in cells or lysates may run through a third protein. Some results given as binding are weak or reduced against the parent protein; the word gives no strength. For some of these results: Sequences can lack the tags named with a protein.
# T1: flag-tagged SMG5 (UniProt Q9UPR3)
# T1 sequence: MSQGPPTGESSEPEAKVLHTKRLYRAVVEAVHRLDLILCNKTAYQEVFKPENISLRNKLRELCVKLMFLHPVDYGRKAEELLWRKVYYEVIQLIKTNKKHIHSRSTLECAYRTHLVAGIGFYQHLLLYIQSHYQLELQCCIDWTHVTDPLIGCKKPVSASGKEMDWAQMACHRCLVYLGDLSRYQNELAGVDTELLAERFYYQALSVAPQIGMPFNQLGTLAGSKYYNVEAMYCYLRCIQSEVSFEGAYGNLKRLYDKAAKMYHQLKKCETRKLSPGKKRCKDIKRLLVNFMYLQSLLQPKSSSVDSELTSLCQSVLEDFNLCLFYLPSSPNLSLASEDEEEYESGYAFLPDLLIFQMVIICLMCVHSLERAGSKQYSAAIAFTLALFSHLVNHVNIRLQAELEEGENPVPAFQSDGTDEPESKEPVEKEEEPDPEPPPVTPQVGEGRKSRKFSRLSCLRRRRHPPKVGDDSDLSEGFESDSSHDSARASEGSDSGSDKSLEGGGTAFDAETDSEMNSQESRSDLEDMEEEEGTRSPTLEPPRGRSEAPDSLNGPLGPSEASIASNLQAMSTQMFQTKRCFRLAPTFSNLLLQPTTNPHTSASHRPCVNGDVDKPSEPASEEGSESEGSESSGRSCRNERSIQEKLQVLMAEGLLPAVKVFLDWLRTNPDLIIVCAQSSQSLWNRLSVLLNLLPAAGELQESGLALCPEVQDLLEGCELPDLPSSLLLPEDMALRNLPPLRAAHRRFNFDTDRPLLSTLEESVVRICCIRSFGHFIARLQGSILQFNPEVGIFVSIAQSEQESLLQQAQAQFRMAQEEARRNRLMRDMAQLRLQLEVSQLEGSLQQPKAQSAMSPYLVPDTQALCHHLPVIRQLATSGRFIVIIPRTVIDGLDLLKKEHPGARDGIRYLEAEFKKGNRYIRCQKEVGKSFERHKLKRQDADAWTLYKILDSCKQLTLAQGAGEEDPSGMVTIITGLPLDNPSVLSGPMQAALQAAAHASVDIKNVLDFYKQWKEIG
# T2: SMG5 (human (endogenous in BxPC-3 and SW1990)) (UniProt Q9UPR3)
# T2 sequence: T1 sequence
# B1: UPF1 (protein, UniProt Q92900-2 1-1118)
# chain: MSVEAYGPSSQTLTFLDTEEAELLGADTQGSEFEFTDFTLPSQTQTPPGGPGGPGGGGAGGPGGAGAGAAAGQLDAQVGPEGILQNGAVDDSVAKTSQLLAELNFEEDEEDTYYTKDLPIHACSYCGIHDPACVVYCNTSKKWFCNGRGNTSGSHIVNHLVRAKCKEVTLHKDGPLGETVLECYNCGCRNVFLLGFIPAKADSVVVLLCRQPCASQSSLKDINWDSSQWQPLIQDRCFLSWLVKIPSEQEQLRARQITAQQINKLEELWKENPSATLEDLEKPGVDEEPQHVLLRYEDAYQYQNIFGPLVKLEADYDKKLKESQTQDNITVRWDLGLNKKRIAYFTLPKTDSDMRLMQGDEICLRYKGDLAPLWKGIGHVIKVPDNYGDEIAIELRSSVGAPVEVTHNFQVDFVWKSTSFDRMQSALKTFAVDETSVSGYIYHKLLGHEVEDVIIKCQLPKRFTAQGLPDLNHSQVYAVKTVLQRPLSLIQGPPGTGKTVTSATIVYHLARQGNGPVLVCAPSNIAVDQLTEKIHQTGLKVVRLCAKSREAIDSPVSFLALHNQIRNMDSMPELQKLQQLKDETGELSSADEKRYRALKRTAERELLMNADVICCTCVGAGDPRLAKMQFRSILIDESTQATEPECMVPVVLGAKQLILVGDHCQLGPVVMCKKAAKAGLSQSLFERLVVLGIRPIRLQVQYRMHPALSAFPSNIFYEGSLQNGVTAADRVKKGFDFQWPQPDKPMFFYVTQGQEEIASSGTSYLNRTEAANVEKITTKLLKAGAKPDQIGIITPYEGQRSYLVQYMQFSGSLHTKLYQEVEIASVDAFQGREKDFIILSCVRANEHQGIGFLNDPRRLNVALTRARYGVIIVGNPKALSKQPLWNHLLNYYKEQKVLVEGPLNNLRESLMQFSKPRKLVNTINPGARFMTTAMYDAREAIIPGSVYDRSSQGRPSSMYFQTHDQIGMISAGPSHVAAMNIPIPFNLVMPPMPPPGYFGQANGPAAGRGTPKGKTGRGGRQKNRFGLPGPSQTNLPNSQASQDVASQPFSQGALTQGYISMSQPSQMSQPGLSQPELSQDSYLGDEFKSQIDVALSQDSTYQGERAYQHGGVTGLSQY
# B2: phospho-UPF1 (protein, UniProt Q92900-2 1-1118)
# chain: B1 chain
# modifications: phosphorylated (residues not stated)
# Key:
# flag-tagged SMG5 = molecular target: T1, flag-tagged SMG5; assay: co-IP; 293 T cells transfected with myc-tagged PP2A and flag-tagged SMG5, treated with or without nonbiotinylated DDIT4-AS1 RNA (doses); IP with anti-Flag antibodies, Western blot
# [1] = molecular target: T2, SMG5 (human (endogenous in BxPC-3 and SW1990)); assay: co-IP; endogenous proteins; lysates of BxPC-3 cells (with or without DDIT4-AS1 siRNA) and SW1990 cells (with or without DDIT4-AS1 overexpression plasmid); IP with anti-SMG5 antibodies, Protein A/G Dynabeads, Western blot; lysis buffer 25 mM Tris-HCl pH 7.4, 150 mM NaCl, 1% NP-40, 1 mM EDTA, 5% glycerol
Binder,binding (flag-tagged SMG5),binding [1]
B1,binds,binds
B2,binds,binds

# — article PMC9438157
